≈ marks a conversion by molar mass, not a printed value.

The values below come from paper PMC7814726, “Phytochemical constituents and biological activities of Salvia macrosiphon Boiss” (BMC Chemistry, 2021).

The subject of assay [1] is Staphylococcus aureus ATCC 6538P. Nature of the assay: Antibacterial MIC, broth micro-dilution, S. aureus. It is filed as cell-based. The following applies: ampicillin standard, 24 h at 37 °C. The procedure:
(§1) In vitro antibacterial activity of all fractions was assessed against gram-positive and negative bacteria (Staphylococcus aureus ATCC 6538P and Escherichia coli ATCC 8739). Minimum inhibitory concentration (MIC) was determined by broth micro-dilution method. Serial dilutions of fractions and antimicrobial agents were prepared in 96-well plates by using (Mueller-Hinton Broth) MHB, and was made in a concentration ranging from 0.125 to 64 mg/mL Mueller-Hinton Broth (MHB) medium. The standard saline solution was prepared to get inoculants turbidity solution equal to 0.5 McFarland standards. The inoculants of the microbial strains were prepared from 20 h bacterial culture that were adjusted to 0.5 McFarland standard turbidity and were further diluted (1:100) using MHB medium just before adding to the serially diluted samples. The plates were incubated for 24 h at 37 °C and MIC values were recorded as the lowest concentrations which could inhibit visible growth of microorganisms. Each experiment was done in triplicate. The ampicillin was used as the standard antibacterial agent.
On the technique in general: Broth dilution looks for growth in wells or tubes with falling amounts of substance.

Assay [2] relates to Escherichia coli ATCC 8739. Kind of assay: Antibacterial MIC, broth micro-dilution, E. coli. The following applies: ATCC8739, ampicillin standard, 24 h at 37 °C. It is filed as cell-based. The protocol: as §1

Regarding `CC1(C)S[C@@H]2[C@H](NC(=O)[C@H](N)c3ccccc3)C(=O)N2[C@H]1C(=O)O` [Ampicillin], the MIC in assay [1] (Staphylococcus aureus, ATCC6538P) worked out at 0.5 µg/mL (≈ 1.43 µM); in assay [2], 0.12 µg/mL (≈ 0.343 µM). Moreover, in assay [1], the “MIC S. aureus” value amounted to 0.50 µg/mL (≈ 1.43 µM).

For orientation: MIC means the least concentration at which growth counts as inhibited. A lower MIC goes with greater potency.
